Assay results as given in PMC7819943, “Rice protein-binding microarrays: a tool to detect cis-acting elements near promoter regions in rice”.
This is one part of the list.

The chains behind the UniProt entries cited, without tags or fusion partners.
UniProt Q0JBA9, entry or part of it: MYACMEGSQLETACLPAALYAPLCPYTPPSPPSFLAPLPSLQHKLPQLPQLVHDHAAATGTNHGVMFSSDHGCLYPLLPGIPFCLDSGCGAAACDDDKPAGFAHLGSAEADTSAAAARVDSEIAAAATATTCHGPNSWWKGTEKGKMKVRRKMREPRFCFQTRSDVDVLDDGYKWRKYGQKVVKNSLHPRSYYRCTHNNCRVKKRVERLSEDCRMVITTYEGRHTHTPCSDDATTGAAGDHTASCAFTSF

target: OsWRKY34 (Oryza sativa, UniProt Q0JBA9 1-250); assay: protein-binding microarray (RPBM); PBS, 2% BSA, 51.3 ng/ul salmon testes DNA, 50 uM zinc acetate, 200 nM TF, 25 C, 1 h; high values mean tight binding; details: protein: recombinant; tags: N-terminal polyhistidine and DsRed monomer fusion (pET32a); label: CyDye5-dUTP incorporated in the synthesized complementary strand; 3' TTTTT single-stranded linker to array surface; dsDNA, one strand shown
In short: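 In PBS with 2% BSA, salmon testes DNA and 50 µM zinc acetate, 200 nM protein was incubated on a custom Agilent array at 25 °C for 1 h and then washed off. The array had been made double-stranded by primer extension with Cy5-dUTP and blocked with 2% BSA. The proteins were transcription factors fused N-terminally to polyhistidine and DsRed, expressed in E. coli BL21-CodonPlus and purified on Ni–NTA. The binding signal is per-feature fluorescence intensity (arbitrary units) from an Axon 4000B scanner.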

Row | Sequence | binding signal
1 | AGAAACTTGTATGCCAATATGTGTCATGCGACCATCTCTGCGGAGTCACCTAGTGCAG | 8300 fluorescence intensity (a.u.)
2 | GAAATTCATTCCAGTCATGACGTGTCAGCTCGTAGAAATTCGGAGTCACCTAGTGCAG | 8230 fluorescence intensity (a.u.)
3 | GGTGGTGGTGGTGGGCGACGTGGACTCCATCGGGCTGACGCGGAGTCACCTAGTGCAG | 9440 fluorescence intensity (a.u.)
4 | ACCTAAAGCCGCTTTCTAACAGTCGCAAACTCGCATTAGCCGGAGTCACCTAGTGCAG | 8040 fluorescence intensity (a.u.)
5 | CCCCAGCCCAGTTGGGCCCAAACTGTCCATTCCAGCCATCCGGAGTCACCTAGTGCAG | 8330 fluorescence intensity (a.u.)
6 | TGCCGTCCCATAGTTAGGTTCCTGTCATATAGTATTTCTGCGGAGTCACCTAGTGCAG | 8140 fluorescence intensity (a.u.)
7 | GTGTTTTCGCATGGTTCTCTATTTTGACAAACGACGAAGCCGGAGTCACCTAGTGCAG | 8780 fluorescence intensity (a.u.)
8 | CTCGCCGTCCATCTCTCTTCATGTAATTCACGCTCCATGTCGGAGTCACCTAGTGCAG | 12300 fluorescence intensity (a.u.)
9 | TCCTTCTTCAGCCCCGGCACGTCCGCCTTGAACACGTGCGCGGAGTCACCTAGTGCAG | 11000 fluorescence intensity (a.u.)
10 | ACTGCGGGAGACTAATCATCGTGTGCTTATCTTCTCTCAGCGGAGTCACCTAGTGCAG | 8960 fluorescence intensity (a.u.)
11 | ATTTCTAAATTGTATTTCTATATGGACTCTGTTTTTTCTTCGGAGTCACCTAGTGCAG | 11100 fluorescence intensity (a.u.)
12 | CGTTGCATTTATTAATTTACCTTTCTTCTTCTCACACAAGCGGAGTCACCTAGTGCAG | 9150 fluorescence intensity (a.u.)
13 | CCATTCAGTTTTGCTATATAATTGTCGATAAATTTTCTTCCGGAGTCACCTAGTGCAG | 8380 fluorescence intensity (a.u.)
14 | ATCCATTCTTTGTCTGGATTTAGGTGTATAGCTGCCTTTTCGGAGTCACCTAGTGCAG | 8830 fluorescence intensity (a.u.)
15 | TCTTAGACGGTCCTGACTCGAGGCCCATATATATGCTGGGCGGAGTCACCTAGTGCAG | 19900 fluorescence intensity (a.u.)
16 | CACCGTCATATATCTATGCATGGTCAATTGCTGTTTCTTTCGGAGTCACCTAGTGCAG | 10700 fluorescence intensity (a.u.)
17 | GTTCAGCTCTACTTTTTCAGATGGAAAAAGATCTCTGCCACGGAGTCACCTAGTGCAG | 8420 fluorescence intensity (a.u.)
18 | ACACTTGAAATACTTGGGCGGGTAGGATTGGGTCGGGCTCCGGAGTCACCTAGTGCAG | 11900 fluorescence intensity (a.u.)
19 | TAGACCGCAGCATCTGCTTTTTGTATAATCTATTCTATTGCGGAGTCACCTAGTGCAG | 9010 fluorescence intensity (a.u.)
20 | CCTCATCCCTTTCTCGTTCCTCTTTTCCTCTCTGTTCCTCCGGAGTCACCTAGTGCAG | 8030 fluorescence intensity (a.u.)
21 | CCTAGCTTCTTCTTGATCCACAGTTTGTTTTGTGCGTGCACGGAGTCACCTAGTGCAG | 10300 fluorescence intensity (a.u.)

An excerpt of these results, as a markdown table.

| Row | Sequence | binding signal |
| --- | --- | --- |
| 8 | CTCGCCGTCCATCTCTCTTCATGTAATTCACGCTCCATGTCGGAGTCACCTAGTGCAG | 12300 fluorescence intensity (a.u.) |
| 17 | GTTCAGCTCTACTTTTTCAGATGGAAAAAGATCTCTGCCACGGAGTCACCTAGTGCAG | 8420 fluorescence intensity (a.u.) |
| 18 | ACACTTGAAATACTTGGGCGGGTAGGATTGGGTCGGGCTCCGGAGTCACCTAGTGCAG | 11900 fluorescence intensity (a.u.) |

The list goes on:

Row | Sequence | binding signal
22 | AGCTCCTTGATCCGATACGATCTGTCTATTTATCTTGTTACGGAGTCACCTAGTGCAG | 10500 fluorescence intensity (a.u.)
23 | CTCCTCCGTCTTTCTCGCCTTTCGCCACCACCACCACCAACGGAGTCACCTAGTGCAG | 9860 fluorescence intensity (a.u.)
24 | AAGGGCAAGCTCACCCACCCTTTCTTTCTTCACAATTTCCCGGAGTCACCTAGTGCAG | 9130 fluorescence intensity (a.u.)
25 | CTACTCGCCGCCATTCTCGCATTCTCGCCTTCTCGCTCTCCGGAGTCACCTAGTGCAG | 10700 fluorescence intensity (a.u.)
26 | TACATCCCATCCTCGCCGCGATTTCCTTCGCCGCCGCCGCCGGAGTCACCTAGTGCAG | 11000 fluorescence intensity (a.u.)
27 | TGTGGAGCCATGCTGGCTCTTTTTTTTTGCCACGTCACATCGGAGTCACCTAGTGCAG | 8850 fluorescence intensity (a.u.)
28 | AGCTCACACCACATGGCGCCATTTCTCCATTCTCTCCATGCGGAGTCACCTAGTGCAG | 9810 fluorescence intensity (a.u.)
29 | GTGATTTTTTGGCCGCACCAATTCCCTGTCCACGTTCGTGCGGAGTCACCTAGTGCAG | 11000 fluorescence intensity (a.u.)
30 | TGCTTTTGTATTTTTTTTGCTGTGTATATATCATAAACTTCGGAGTCACCTAGTGCAG | 8550 fluorescence intensity (a.u.)
31 | GCATACTTGAGCATGTTCTACTTCTTCTAGCCATTGATTTCGGAGTCACCTAGTGCAG | 10200 fluorescence intensity (a.u.)
32 | TTTTCCTGTGTTTTGTAATCCTCTGTTTTACACTTCAATTCGGAGTCACCTAGTGCAG | 10100 fluorescence intensity (a.u.)
33 | GTATTCATGCATTTATCCACGAGTTCATCCTTATTGCTTTCGGAGTCACCTAGTGCAG | 11200 fluorescence intensity (a.u.)
34 | TTGTGTTCTCTCCGTAGTTTTTCTCAAAGGCATGTATATGCGGAGTCACCTAGTGCAG | 8550 fluorescence intensity (a.u.)
35 | ATCGCGGTGCAGTAATCACACACTAATCACTAATCACTCACGGAGTCACCTAGTGCAG | 8220 fluorescence intensity (a.u.)
36 | TTCGCCCGTGCCCGAGCATGCTGCCGCCCGTGCCCGAGCTCGGAGTCACCTAGTGCAG | 9870 fluorescence intensity (a.u.)
37 | GTAAGCAGTGACAGAATCCGCGCCGCCTCTCGGGGCGCCCCGGAGTCACCTAGTGCAG | 8250 fluorescence intensity (a.u.)
38 | CCACCGTCGCCGATTCCACCGCTGCCACGGACAACCCCGCCGGAGTCACCTAGTGCAG | 8870 fluorescence intensity (a.u.)
39 | AACCAAACCCAACCCGTCCACTGCTCCCGTTTTATAATCCCGGAGTCACCTAGTGCAG | 9470 fluorescence intensity (a.u.)
40 | TGTAGGAGAACATCCCCACCTGCCCCAACCATGTCGGCGCCGGAGTCACCTAGTGCAG | 8720 fluorescence intensity (a.u.)
41 | AAGTGGCCTCACTCATGCTCTAACTAACTGATCTCTTTCTCGGAGTCACCTAGTGCAG | 8700 fluorescence intensity (a.u.)
42 | AAACCATTCGCCCGATTTGATCCACATCACCACTTTGGTTCGGAGTCACCTAGTGCAG | 8820 fluorescence intensity (a.u.)
